The supplement of paper PMC10849652
The list shows a part of the results.

The chains behind the UniProt entries cited, without tags or fusion partners. Where a name states a change or a piece, a line headed by the entry shows the natural chain unless it says otherwise.
UniProt Q8TDY4: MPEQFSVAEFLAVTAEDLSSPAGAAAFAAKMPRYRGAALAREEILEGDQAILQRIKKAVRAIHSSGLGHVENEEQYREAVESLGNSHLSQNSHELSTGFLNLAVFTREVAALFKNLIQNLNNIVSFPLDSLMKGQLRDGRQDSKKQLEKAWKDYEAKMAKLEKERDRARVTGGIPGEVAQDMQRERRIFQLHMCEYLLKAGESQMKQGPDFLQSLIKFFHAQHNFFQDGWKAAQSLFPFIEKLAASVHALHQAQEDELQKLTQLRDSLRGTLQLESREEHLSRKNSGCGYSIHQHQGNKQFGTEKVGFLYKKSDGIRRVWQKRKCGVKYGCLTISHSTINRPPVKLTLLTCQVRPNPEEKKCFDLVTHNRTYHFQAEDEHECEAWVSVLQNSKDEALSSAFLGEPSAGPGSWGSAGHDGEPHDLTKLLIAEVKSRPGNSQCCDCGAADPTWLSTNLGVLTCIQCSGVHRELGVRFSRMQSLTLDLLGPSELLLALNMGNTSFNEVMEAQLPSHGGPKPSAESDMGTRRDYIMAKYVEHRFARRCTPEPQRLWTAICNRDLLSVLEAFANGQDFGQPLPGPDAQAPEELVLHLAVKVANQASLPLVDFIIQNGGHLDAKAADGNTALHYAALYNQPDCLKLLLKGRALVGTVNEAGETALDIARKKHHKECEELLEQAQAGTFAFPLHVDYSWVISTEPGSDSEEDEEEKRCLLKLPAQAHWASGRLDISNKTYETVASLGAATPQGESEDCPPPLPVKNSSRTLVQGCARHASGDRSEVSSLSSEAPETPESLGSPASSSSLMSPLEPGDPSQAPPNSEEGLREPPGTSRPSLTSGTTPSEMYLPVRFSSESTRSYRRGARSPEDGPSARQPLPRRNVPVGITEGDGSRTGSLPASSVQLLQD
UniProt P52565: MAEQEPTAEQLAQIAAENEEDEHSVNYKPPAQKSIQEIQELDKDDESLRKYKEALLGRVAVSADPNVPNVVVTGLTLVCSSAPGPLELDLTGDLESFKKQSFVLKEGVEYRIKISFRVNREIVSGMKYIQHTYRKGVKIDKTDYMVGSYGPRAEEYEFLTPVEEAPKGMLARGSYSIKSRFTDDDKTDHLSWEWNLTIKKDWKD
UniProt Q96BI3, whole entry, looked up: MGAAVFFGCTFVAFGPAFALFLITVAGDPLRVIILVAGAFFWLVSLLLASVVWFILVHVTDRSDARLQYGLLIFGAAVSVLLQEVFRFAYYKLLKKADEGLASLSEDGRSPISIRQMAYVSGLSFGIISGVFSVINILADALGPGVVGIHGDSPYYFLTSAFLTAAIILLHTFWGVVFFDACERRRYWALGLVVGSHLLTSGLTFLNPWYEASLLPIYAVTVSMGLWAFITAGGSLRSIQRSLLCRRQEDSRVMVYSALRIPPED
UniProt Q9BUR5: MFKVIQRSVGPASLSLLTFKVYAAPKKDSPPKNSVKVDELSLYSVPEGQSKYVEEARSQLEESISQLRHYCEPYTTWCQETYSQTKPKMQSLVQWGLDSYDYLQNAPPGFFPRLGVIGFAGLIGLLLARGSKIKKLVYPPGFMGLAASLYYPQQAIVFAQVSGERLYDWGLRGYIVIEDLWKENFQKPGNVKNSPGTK
UniProt Q8IW19: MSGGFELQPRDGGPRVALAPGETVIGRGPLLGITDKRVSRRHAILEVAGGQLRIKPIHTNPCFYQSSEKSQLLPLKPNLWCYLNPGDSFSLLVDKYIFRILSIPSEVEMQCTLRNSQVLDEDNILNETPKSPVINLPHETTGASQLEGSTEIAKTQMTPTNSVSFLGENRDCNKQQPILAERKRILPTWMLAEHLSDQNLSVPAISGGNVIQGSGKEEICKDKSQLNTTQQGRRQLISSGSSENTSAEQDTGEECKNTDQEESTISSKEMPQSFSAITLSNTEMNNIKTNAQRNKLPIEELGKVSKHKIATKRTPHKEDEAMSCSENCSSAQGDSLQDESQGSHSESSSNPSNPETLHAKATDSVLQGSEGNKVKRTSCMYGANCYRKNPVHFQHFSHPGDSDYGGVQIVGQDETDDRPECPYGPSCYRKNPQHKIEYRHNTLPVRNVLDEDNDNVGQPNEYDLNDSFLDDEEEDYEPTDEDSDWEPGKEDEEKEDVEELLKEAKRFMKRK
UniProt P07741: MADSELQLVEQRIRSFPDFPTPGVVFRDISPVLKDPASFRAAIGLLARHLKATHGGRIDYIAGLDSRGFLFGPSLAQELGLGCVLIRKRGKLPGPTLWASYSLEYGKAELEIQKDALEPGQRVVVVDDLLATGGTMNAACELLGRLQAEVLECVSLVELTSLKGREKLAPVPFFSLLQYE
UniProt Q2VPB7: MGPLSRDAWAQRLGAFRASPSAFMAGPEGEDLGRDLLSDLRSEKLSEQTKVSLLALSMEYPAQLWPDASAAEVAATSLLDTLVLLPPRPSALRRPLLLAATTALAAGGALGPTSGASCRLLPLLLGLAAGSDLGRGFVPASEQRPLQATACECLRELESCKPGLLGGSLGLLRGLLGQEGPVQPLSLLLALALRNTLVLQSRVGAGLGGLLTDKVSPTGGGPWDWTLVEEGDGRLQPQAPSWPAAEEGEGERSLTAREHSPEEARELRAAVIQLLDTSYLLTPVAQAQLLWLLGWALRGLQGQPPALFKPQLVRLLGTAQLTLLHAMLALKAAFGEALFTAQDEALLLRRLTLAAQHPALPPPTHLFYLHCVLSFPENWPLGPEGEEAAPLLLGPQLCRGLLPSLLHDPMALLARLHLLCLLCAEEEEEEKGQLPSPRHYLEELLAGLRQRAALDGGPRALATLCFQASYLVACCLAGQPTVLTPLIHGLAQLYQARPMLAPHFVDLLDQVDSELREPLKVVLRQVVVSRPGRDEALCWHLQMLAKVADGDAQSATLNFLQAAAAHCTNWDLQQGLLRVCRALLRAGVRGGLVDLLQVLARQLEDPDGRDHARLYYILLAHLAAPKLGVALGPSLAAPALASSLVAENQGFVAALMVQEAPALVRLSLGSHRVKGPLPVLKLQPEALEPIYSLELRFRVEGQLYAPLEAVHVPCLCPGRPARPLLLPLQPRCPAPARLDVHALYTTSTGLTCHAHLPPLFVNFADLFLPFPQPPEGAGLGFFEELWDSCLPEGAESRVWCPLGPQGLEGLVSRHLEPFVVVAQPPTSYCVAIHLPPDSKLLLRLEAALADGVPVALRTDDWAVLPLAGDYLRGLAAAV
UniProt Q7Z5H3: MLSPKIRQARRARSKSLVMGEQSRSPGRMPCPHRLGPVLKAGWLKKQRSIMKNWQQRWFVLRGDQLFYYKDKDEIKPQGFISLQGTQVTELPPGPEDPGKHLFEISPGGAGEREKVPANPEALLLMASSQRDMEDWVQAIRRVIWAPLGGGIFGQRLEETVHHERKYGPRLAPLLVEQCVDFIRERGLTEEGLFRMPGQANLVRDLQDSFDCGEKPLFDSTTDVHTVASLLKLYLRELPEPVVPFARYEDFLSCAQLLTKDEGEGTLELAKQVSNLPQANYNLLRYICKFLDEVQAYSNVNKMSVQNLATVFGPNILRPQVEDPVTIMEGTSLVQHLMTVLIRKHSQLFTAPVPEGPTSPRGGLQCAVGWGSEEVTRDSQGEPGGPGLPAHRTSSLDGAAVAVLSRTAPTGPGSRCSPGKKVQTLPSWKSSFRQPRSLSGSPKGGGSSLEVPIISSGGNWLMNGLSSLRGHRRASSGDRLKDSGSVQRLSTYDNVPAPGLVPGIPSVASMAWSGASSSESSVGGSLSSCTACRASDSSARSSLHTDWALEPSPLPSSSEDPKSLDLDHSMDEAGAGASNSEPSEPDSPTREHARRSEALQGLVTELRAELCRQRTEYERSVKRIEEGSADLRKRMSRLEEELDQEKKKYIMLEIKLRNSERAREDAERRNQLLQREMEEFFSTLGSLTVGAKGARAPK
UniProt Q8N6H7: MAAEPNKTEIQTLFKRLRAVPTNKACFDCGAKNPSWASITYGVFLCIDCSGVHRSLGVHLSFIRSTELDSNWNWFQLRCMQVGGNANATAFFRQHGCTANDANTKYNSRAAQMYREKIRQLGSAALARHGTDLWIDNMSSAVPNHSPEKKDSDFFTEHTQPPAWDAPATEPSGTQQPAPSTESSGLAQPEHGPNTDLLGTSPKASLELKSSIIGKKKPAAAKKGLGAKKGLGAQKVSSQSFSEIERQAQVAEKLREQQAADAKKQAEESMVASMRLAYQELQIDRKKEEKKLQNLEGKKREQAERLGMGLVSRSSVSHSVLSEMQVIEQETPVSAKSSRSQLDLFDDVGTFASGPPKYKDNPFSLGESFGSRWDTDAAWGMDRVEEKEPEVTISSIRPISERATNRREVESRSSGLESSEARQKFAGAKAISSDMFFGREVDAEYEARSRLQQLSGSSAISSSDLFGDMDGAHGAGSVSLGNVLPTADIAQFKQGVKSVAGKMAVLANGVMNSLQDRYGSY
UniProt Q96KC2: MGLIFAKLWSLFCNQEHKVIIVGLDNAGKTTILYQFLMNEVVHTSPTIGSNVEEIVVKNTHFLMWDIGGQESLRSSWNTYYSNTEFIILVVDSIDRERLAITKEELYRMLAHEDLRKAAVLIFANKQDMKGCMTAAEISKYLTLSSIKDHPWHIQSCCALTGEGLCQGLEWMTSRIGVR
UniProt P05067, whole entry, looked up: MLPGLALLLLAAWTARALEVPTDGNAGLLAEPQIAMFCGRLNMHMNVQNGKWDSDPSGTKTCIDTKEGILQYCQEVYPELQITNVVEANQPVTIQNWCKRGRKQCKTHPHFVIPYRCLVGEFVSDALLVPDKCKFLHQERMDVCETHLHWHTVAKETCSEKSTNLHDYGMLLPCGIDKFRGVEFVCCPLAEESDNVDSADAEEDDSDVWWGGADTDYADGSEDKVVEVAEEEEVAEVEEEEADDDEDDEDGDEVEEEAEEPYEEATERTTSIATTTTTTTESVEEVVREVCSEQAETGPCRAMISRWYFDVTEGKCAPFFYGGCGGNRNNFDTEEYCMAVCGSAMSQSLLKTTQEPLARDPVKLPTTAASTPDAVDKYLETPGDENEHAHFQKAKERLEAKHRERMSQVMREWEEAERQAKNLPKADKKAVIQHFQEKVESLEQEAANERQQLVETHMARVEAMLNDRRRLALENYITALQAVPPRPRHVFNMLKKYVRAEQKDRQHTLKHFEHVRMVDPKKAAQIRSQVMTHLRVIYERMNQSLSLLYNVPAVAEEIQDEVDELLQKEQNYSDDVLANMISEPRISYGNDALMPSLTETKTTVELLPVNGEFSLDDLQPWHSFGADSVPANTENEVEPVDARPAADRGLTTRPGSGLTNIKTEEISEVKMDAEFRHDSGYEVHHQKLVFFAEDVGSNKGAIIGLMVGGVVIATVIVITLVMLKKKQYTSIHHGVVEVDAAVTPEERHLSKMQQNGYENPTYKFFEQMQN

Columns and labels:
Assay in all cases: log2 fold change, soluble protein after heating vs DMSO (PISA); higher = thermal stabilisation; K562 lysate, 10 uM; active = over 0.2 and 3.5 SD of the protein, either way, in both replicates (recomputed)
[1] = compound: C#Cc1cccc(Nc2ncnc3cc(OCCOC)c(OCCOC)cc23)c1 [erlotinib]
Outline: (§1)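 A 30 min treatment with 10 μM compound was applied to crude K562 extract at 1 mg/mL protein in PBS pH 7.4 with 1 mM MgCl2. Heating for 3 min spanned 48°C-58°C, after which aliquots were pooled, adjusted to 0.5% NP-40 at 4°C and spun at 21,000xg for 90 min. TMTpro 16plex LC-MS/MS of the supernatant, with channel sums equalised, gave values recorded as log-two fold change in thermal stability against solvent controls, from duplicates.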

[2] = compound: C/C(=N\NC(=O)C1=CC(=CC=C1)S(=O)(=O)N2CCOCC2)/C3=C(C=CC(=C3)Cl)O
Outline: as §1

[3] = compound: C1=CC(=CC=C1C2=NC3=C(N2)C=C(C=C3)C(=O)N)OC4=CC=C(C=C4)Cl
Outline: as §1

[4] = compound: C1=CC2=C(C=CC(=C2)/C=C\3/C(=O)NC(=NCC4=CC=CS4)S3)N=C1
Outline: as §1

[5] = compound: C1=CC2=NC=CN=C2C=C1/C=C/3\C(=O)NC(=O)S3
Outline: as §1

[6] = compound: C1=CC=C(C=C1)C2=NC(=C(N2)C3=CC=NC=C3)C4=CC(=C(C=C4)Cl)O
Outline: as §1

[7] = compound: C1=CC=C2C(=C1)C3=NNC4=CC=CC(=C43)C2=O
Outline: as §1

[8] = compound: C1CCN(C1)C(=O)NC2=CC=CC(=C2)NC3=NC=C(C(=N3)NCCC4=CN=CN4)Br
Outline: as §1

[9] = compound: C1CN(CCC1(CC2=CC=C(C=C2)Cl)N)C3=NC=NC4=C3C=CN4
Outline: as §1

[10] = compound: C1COCCN1CCN2C3=CC=CC=C3N=C2NC(=O)C4=CC(=CC=C4)[N+](=O)[O-] [IRAK-1-4 Inhibitor I]
Outline: as §1

[11] = compound: C=CC(=O)N1CCC[C@@H](n2nc(-c3ccc(Oc4ccccc4)cc3)c3c(N)ncnc32)C1 [ibrutinib]
Outline: as §1

[12] = compound: CC(=O)c1cnc2ccc(-c3cc(Cl)c(O)c(Cl)c3)nc2c1N[C@H]1CC[C@H](CN(C)C)CC1
Outline: as §1

[13] = compound: CC(C)(C)Cn1c(N)nc2ccc(-c3[nH]c(C(C)(C)C)nc3-c3ccc(F)cc3)nc21 [ralimetinib]
Outline: as §1

[14] = compound: CC(C)(O)CC(=O)NCCn1ccc2ncnc(Nc3ccc(Oc4cccc(C(F)(F)F)c4)c(Cl)c3)c21
Outline: as §1

[15] = compound: CC(C)C1=C2N=C(C=C(N2N=C1)NCC3=CC=CC=C3)NCCCCCCN
Outline: as §1

[16] = compound: CC1=C(C(CC(=O)N1)C2=CC=C(C=C2)C(F)(F)F)C(=O)NC3=C(C=C4C(=C3)C=NN4)F
Outline: as §1

[17] = compound: CC1=C(C2=C(C=C1)C(=O)C3=CC=CC=C3N2CCCN)C
Outline: as §1

[18] = compound: CC1=C(C=C(C=C1)NC(=O)C2=CC(=CC=C2)C(C)(C)C#N)NC3=CC4=C(C=C3)N=CN(C4=O)C
Outline: as §1

[19] = compound: CC1=C(C=C(C=C1)NC(=O)C2=CC(=CC=C2)N(C)C)NC(=O)C3=CC=C(C=C3)O
Outline: as §1

[20] = compound: CC1=CC=C(C=C1)SC2=C3C=C(SC3=CN=C2)C(=O)N
Outline: as §1

Measured: log2 fold change

ASAP3 (UniProt Q8TDY4)
inactive: [1] 0.021 | [2] 0.025 | [3] 0.016 | [4] -0.048 | [5] -0.025 | [6] -0.004 | [7] -0.042 | [8] -0.001 | [9] 0.03 | [10] 0.013 | [11] -0.05 | [12] 0.011 | [13] 0.032 | [14] -0.099 | [15] 0.001 | [16] -0.015 | [17] -0.002 | [18] -0.038 | [19] 0.012 | [20] -0.004

ARHGDIA (UniProt P52565)
inactive: [1] -0.016 | [2] -0.055 | [3] 0.006 | [4] -0.033 | [5] -0.014 | [6] -0.004 | [7] 0.011 | [8] 0.007 | [9] 0.031 | [10] 0.005 | [11] -0.001 | [12] -0.012 | [13] -0.019 | [14] -0.024 | [15] 0.007 | [16] -0.055 | [17] -0.025 | [18] 0.007 | [19] 0.003 | [20] -0.01

ARHGEF1 (UniProt M0QZR4)
inactive: [1] 0.018 | [2] 0.024 | [3] -0.023 | [4] 0.002 | [5] 0.027 | [6] 0.001 | [7] -0.041 | [8] -0.004 | [9] -0.022 | [10] -0.031 | [11] -0.009 | [12] -0.001 | [13] 0.009 | [14] -0.008 | [15] 0.019 | [16] -0.015 | [17] 0.007 | [18] 0.002 | [19] 0.015 | [20] 0.005

APH1A (UniProt Q96BI3)
inactive: [1] 0.036 | [3] -0.011 | [5] -0.035 | [8] 0.054 | [9] 0.03 | [11] -0.084 | [12] 0.046 | [15] -0.103 | [16] 0.11 | [18] 0.073 | [20] -0.072

APOO (UniProt Q9BUR5)
inactive: [1] 0.033 | [2] 0.034 | [3] -0.039 | [4] -0.041 | [5] 0.019 | [6] -0.006 | [7] 0.068 | [8] 0.019 | [9] -0.083 | [10] 0.018 | [11] 0.023 | [12] 0.055 | [13] 0.02 | [14] -0.039 | [15] -0.027 | [16] -0.012 | [17] -0.025 | [18] -0.024 | [19] 0.052 | [20] 0.006

APLF (UniProt Q8IW19)
inactive: [1] 0.115 | [2] 0.034 | [3] -0.001 | [4] -0.032 | [5] 0.204 | [7] 0.084 | [8] 0.043 | [9] -0.096 | [11] 0.033 | [12] -0.118 | [15] -0.069 | [18] 0.086 | [20] -0.052

APRT (UniProt P07741)
inactive: [1] 0.023 | [2] 0.005 | [3] 0.007 | [4] -0.025 | [5] -0.001 | [6] 0.005 | [7] -0.003 | [8] 0.015 | [9] 0.04 | [10] 0.023 | [11] -0.006 | [12] -0.01 | [13] -0.01 | [14] -0.048 | [15] 0.004 | [16] -0.052 | [17] 0.002 | [18] 0.032 | [19] -0.024 | [20] 0.029

3 neighbouring records out of the list so far, quoted:
APOO (UniProt Q9BUR5)
inactive: [1] 0.033 | [2] 0.034 | [3] -0.039 | [4] -0.041 | [5] 0.019 | [6] -0.006 | [7] 0.068 | [8] 0.019 | [9] -0.083 | [10] 0.018 | [11] 0.023 | [12] 0.055 | [13] 0.02 | [14] -0.039 | [15] -0.027 | [16] -0.012 | [17] -0.025 | [18] -0.024 | [19] 0.052 | [20] 0.006

APLF (UniProt Q8IW19)
inactive: [1] 0.115 | [2] 0.034 | [3] -0.001 | [4] -0.032 | [5] 0.204 | [7] 0.084 | [8] 0.043 | [9] -0.096 | [11] 0.033 | [12] -0.118 | [15] -0.069 | [18] 0.086 | [20] -0.052

APRT (UniProt P07741)
inactive: [1] 0.023 | [2] 0.005 | [3] 0.007 | [4] -0.025 | [5] -0.001 | [6] 0.005 | [7] -0.003 | [8] 0.015 | [9] 0.04 | [10] 0.023 | [11] -0.006 | [12] -0.01 | [13] -0.01 | [14] -0.048 | [15] 0.004 | [16] -0.052 | [17] 0.002 | [18] 0.032 | [19] -0.024 | [20] 0.029

(listing goes on)

AP5B1 (UniProt Q2VPB7)
inactive: [1] 0.006 | [3] -0.05 | [5] -0.069 | [6] 0.014 | [8] 0.073 | [9] 0.046 | [10] 0.03 | [11] 0.112 | [12] -0.037 | [13] -0.04 | [14] -0.072 | [15] 0.011 | [16] 0.021 | [17] -0.067 | [18] -0.08 | [19] 0.036 | [20] -0.006

ARHGAP22 isoform 2 (UniProt Q7Z5H3)
inactive: [1] 0.068 | [3] 0.14 | [6] 0.011 | [8] -0.05 | [9] 0.014 | [10] 0.025 | [12] -0.071 | [13] 0.049 | [14] -0.15 | [15] 0.029 | [17] -0.047 | [18] 0.097 | [19] 0.024 | [20] 0.008

ARFGAP2 (UniProt Q8N6H7)
inactive: [1] -0.05 | [2] -0.004 | [3] -0.014 | [4] -0.003 | [5] 0.014 | [6] -0.004 | [7] 0.053 | [8] -0.003 | [9] -0.023 | [10] -0.03 | [11] 0.037 | [12] 0.004 | [13] 0.036 | [14] 0.012 | [15] 0.02 | [16] 0.007 | [17] 0.04 | [18] 0.025 | [19] 0.001 | [20] 0.003

ARL5B (UniProt Q96KC2)
inactive: [1] 0.116 | [2] -0.061 | [3] 0.106 | [4] -0.05 | [5] -0.052 | [6] -0.001 | [7] 0.002 | [8] -0.088 | [9] -0.002 | [10] 0.022 | [11] -0.048 | [12] 0.073 | [13] 0.076 | [14] -0.112 | [15] 0.18 | [16] -0.005 | [18] 0.011 | [19] -0.051 | [20] 0.002

APP (UniProt P05067)
inactive: [1] -0.082 | [3] 0.078 | [5] -0.112 | [8] -0.014 | [9] -0.052 | [11] 0.056 | [15] -0.072 | [16] 0 | [17] 0.059 | [18] -0.131
